Measured values from publication PMC8048298.
Results are given in words; binding and its absence hold for the method and conditions named. For part of these data: In cells and extracts the contact can be indirect. Some results given as binding are weak or reduced against the parent protein; the word gives no strength.

Protein sequences, listed by entry. Tags and fused reporters are not part of them.
UniProt Q99873: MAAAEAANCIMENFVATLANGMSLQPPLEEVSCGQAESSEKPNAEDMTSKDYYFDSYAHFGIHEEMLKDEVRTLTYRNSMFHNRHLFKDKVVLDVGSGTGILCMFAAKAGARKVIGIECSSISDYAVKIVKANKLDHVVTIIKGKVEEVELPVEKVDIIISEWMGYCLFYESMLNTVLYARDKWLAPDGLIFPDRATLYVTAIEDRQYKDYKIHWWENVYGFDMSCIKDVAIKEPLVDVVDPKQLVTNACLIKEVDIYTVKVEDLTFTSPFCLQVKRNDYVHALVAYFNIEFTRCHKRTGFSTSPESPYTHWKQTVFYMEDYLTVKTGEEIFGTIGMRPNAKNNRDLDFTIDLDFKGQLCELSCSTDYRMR
UniProt P51532: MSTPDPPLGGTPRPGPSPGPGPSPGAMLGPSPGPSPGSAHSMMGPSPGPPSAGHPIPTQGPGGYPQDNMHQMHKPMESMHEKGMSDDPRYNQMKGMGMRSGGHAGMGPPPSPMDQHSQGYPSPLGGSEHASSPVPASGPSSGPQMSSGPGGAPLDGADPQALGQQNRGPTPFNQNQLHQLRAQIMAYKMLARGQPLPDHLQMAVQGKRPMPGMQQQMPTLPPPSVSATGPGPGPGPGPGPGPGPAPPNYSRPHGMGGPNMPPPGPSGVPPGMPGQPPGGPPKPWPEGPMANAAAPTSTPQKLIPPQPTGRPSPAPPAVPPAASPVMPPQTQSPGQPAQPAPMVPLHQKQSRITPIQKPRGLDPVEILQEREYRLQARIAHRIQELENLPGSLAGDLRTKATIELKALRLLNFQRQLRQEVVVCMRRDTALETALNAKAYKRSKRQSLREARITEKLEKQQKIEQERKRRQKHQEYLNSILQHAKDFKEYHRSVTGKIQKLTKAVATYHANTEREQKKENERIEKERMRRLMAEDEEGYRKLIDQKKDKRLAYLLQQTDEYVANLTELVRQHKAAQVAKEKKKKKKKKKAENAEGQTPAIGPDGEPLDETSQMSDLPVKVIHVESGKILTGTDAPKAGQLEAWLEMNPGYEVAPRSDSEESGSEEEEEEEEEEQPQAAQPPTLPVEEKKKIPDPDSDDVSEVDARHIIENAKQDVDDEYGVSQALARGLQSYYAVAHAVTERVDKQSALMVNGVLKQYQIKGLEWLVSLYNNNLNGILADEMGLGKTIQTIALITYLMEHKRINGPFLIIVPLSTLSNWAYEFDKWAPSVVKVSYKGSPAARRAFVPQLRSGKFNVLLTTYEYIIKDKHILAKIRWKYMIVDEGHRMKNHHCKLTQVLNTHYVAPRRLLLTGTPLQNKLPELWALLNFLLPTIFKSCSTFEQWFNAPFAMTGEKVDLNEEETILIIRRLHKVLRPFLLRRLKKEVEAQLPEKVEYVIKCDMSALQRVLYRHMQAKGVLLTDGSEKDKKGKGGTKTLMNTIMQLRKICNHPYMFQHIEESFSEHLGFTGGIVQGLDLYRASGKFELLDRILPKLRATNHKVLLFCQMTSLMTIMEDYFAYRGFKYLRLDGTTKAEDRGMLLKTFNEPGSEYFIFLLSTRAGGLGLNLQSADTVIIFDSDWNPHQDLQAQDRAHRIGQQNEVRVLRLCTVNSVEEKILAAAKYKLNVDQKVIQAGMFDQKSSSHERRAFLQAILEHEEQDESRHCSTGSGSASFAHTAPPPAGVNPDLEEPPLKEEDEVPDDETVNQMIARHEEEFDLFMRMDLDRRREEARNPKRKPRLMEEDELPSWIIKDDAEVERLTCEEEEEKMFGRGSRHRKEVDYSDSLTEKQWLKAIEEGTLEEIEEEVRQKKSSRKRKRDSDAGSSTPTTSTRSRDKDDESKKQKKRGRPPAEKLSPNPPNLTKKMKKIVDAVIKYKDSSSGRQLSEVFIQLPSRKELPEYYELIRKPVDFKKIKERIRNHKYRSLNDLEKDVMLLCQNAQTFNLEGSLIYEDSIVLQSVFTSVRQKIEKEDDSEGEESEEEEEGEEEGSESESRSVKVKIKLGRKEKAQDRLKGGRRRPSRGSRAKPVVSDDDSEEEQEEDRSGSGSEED

Columns and labels:
[1] = biological target: Flag-tagged PRMT1 overexpressed in HCT116 cells (human) (UniProt Q99873); assay: co-IP; Flag-antibody immunoprecipitates from HCT116 cells overexpressing Flag-tagged PRMT1, immunoblot with antibodies to SMARCA4
[2] = biological target: PRMT1, endogenous in HCT116 cells (human (endogenous in HCT116)) (UniProt Q99873); assay: ChIP-reChIP; chromatin from HCT116 cells precipitated with a first antibody and re-precipitated with a second antibody; qPCR of gene promoters (TNS4, EGFR), percent of input
[3] = biological target: PRMT1, endogenous in HCT116 cells (human (endogenous in HCT116)) (UniProt Q99873); assay: co-IP; endogenous proteins of HCT116 cells; 500 μg cellular extract, specific antibody or normal rabbit IgG, protein A/G Sepharose; washes with 150 mM NaCl, 0.5% NP-40, 0.25% sodium deoxycholate

binding [1]: binds | binding [2]: binds | binding [3]: binds
Substance: SWI/SNF related matrix-associated actin-dependent regulator of chromatin subfamily A member 4 (SMARCA4), endogenous in HCT116 cells (from UniProt P51532 1-1647)
